# Source: US20150181901A1, “Compositions and Methods for Tissue Storage” (priority 2012, published 2015)
# Test: Light microscopy (hematoxylin and eosin) of trehalose-treated meat after two weeks of freeze/thaw cycling (pork)
# Settings: six freeze/thaw cycles over two weeks
# Description: Between the first week (three freeze/thaw cycles) and the second week (three more freeze/thaw cycles), there was no re-exposure to trehalose. All samples were removed from the refrigerator. Liquid was in most of the sample bags. Fluid was removed by a pipette and the volume was recorded, and the meat sample was weighed. Samples of about 1-2 grams were taken using a no. 10 scalpel, and placed in formalin. FIG. 6 discloses the volume of fluid lost during the second week of freeze/thaw cycles. […] Samples were taken of meat treated with 0%, 5%, 10%, or 15%, trehalose, where the samples were fixed in formalin, stained with hematoxylin and eosin, and examined with a microscope, under moderate power or high power. […] The characteristic of a bundle, or a myofibril, as being broken can be quantified in the following way. […] The characteristic of a bundle, or a myofibril, being broken and moved around can be quantified as follows. First, the overall longitudinal axis of the bundle or fibril is determined. […] Fourth, the angle of the edge, with respect to the overall longitudinal axis is measured. Fifth, angles of ten different fragments are measured. […] If the sum of the angles is zero degrees, that is, if all of the fragments are aligned with the overall longitudinal axis, then the sample of meat is determined (or defined) to be fragmented, but not moved around. […]
structure (smiles),measurement,setting,value
"OC[C@H]1O[C@H](O[C@H]2O[C@H](CO)[C@@H](O)[C@H](O)[C@H]2O)[C@H](O)[C@@H](O)[C@@H]1O [trehalose, trehalose dihydride]",horizontal fractures compared with 0% trehalose-treated meat,5% trehalose or 10% trehalose,"Increases, but to a lesser degree than with 15% trehalose"
same,horizontal fractures compared with 0% trehalose-treated meat,15% trehalose,increase in horizontal fractures was seen
